In this assay the test system is P388 leukemia ip, CD2F1 mice, survival T/C. Nature of the assay: NCI In Vivo Anticancer Drug Screen. Data for tumor model P388 Leukemia (intraperitoneal) in CD2F1 (CDF1) mice. As to conditions: T/C endpoint: median survival time, higher T/C = longer survival.
Where [1] appears, read: dose: 100.0 micrograms/kg/injection, schedule: Q01DX005 (ip), vehicle: Klucel (hydroxypropylcellulose) (HPC).
Where [2] appears, read: dose: 200.0 micrograms/kg/injection, schedule: Q01DX005 (ip), vehicle: Klucel (hydroxypropylcellulose) (HPC).
The mark [3] stands for this setting: dose: 480.0 micrograms/kg/injection, schedule: Q01DX009 (ip), vehicle: saline with Tween-80.
[4] abbreviates: dose: 240.0 mg/kg/injection, schedule: Q01DX005 (ip), vehicle: Klucel (hydroxypropylcellulose) (HPC).
[5] abbreviates: dose: 120.0 mg/kg/injection, schedule: Q01DX005 (ip), vehicle: Klucel (hydroxypropylcellulose) (HPC).
Setting [6] is: dose: 200.0 mg/kg/injection, schedule: Q01DX005 (ip), vehicle: saline with Tween-80.
Setting [7] is: dose: 240.0 mg/kg/injection, schedule: Q01DX005 (ip), vehicle: saline with Tween-80.

Structures are written as SMILES. The list shows only some results of the screen, not a fair sample: it gathers tests that were run many times, whatever their T/C, doses with no T/C, and many T/C values between a quarter and a half above the control. Other doses and runs of a compound stand elsewhere. T/C: endpoint of the treated group in % of that of the vehicle group. Some entries give survivors of the animals treated and no T/C: the source holds a T/C of zero for them, seemingly a mark for toxic or unscored doses. Some doses without a T/C left all or most animals alive at the check, yet need not have been tolerated: survival well below the control is almost never listed, so the zero probably covers shortened survival too. Survivors were counted at the toxicity check, usually on the fifth day, unless a day is given; later deaths do not show. Schedule codes are those of the source, read here as Q, the interval in days (D) or hours (H), X, the number of doses. Some entries were tested several times; their values stand side by side, smallest first. For survival time, this PubChem deposit counts one and a half times the control or more as active, and values a quarter to a half above the control carry no call in these data; other NCI protocols may use other cut-offs. Some T/C values are followed by the survivors on the day toxicity was checked, most often the fifth; without a count, all were alive then. Signs of the kind (2×) say how often a value occurs here.

Consider `CSC1SCC2C(=O)N(C)C(C(C)C)C(=O)OCC(NC(=O)c3cnc4ccccc4n3)C(=O)NC(C)C(=O)N(C)C1C(=O)N(C)C(C(C)C)C(=O)OCC(NC(=O)c1cnc3ccccc3n1)C(=O)NC(C)C(=O)N2C` (stereo not drawn), for which the T/C reads like this: (dose: 1.0 micrograms/kg/injection, schedule: Q01DX010 (ip), vehicle: saline) 140 % of control; (dose: 2.0 micrograms/kg/injection, schedule: Q01DX010 (ip), vehicle: saline) 140 % of control; (dose: 4.0 micrograms/kg/injection, schedule: Q01DX010 (ip), vehicle: saline) 135 % of control; (dose: 7.5 micrograms/kg/injection, schedule: Q01DX009 (ip), vehicle: saline with Tween-80) 127 % of control; (dose: 8.0 micrograms/kg/injection, schedule: Q01DX010 (ip), vehicle: saline) 130 % of control [5 of 6 alive]; (dose: 16.0 micrograms/kg/injection, schedule: Q01DX010 (ip), vehicle: saline) 125 % of control [4 of 6 alive]. Further, the T/C was 143, 149, 156, 158 % of control (dose: 25.0 micrograms/kg/injection, schedule: Q01DX005 (ip), vehicle: Klucel (hydroxypropylcellulose) (HPC)); 139 and 162 % of control (dose: 30.0 micrograms/kg/injection, schedule: Q01DX005 (ip), vehicle: saline, evaluated on day 30); 156 and 157 % of control (dose: 30.0 micrograms/kg/injection, schedule: Q01DX005 (ip), vehicle: saline, evaluated on day 45); 163 % of control (dose: 30.0 micrograms/kg/injection, schedule: Q01DX005 (ip), vehicle: saline, evaluated on day 60); 127 % of control (dose: 30.0 micrograms/kg/injection, schedule: Q01DX009 (ip), vehicle: saline with Tween-80); 153, 157, 168 % of control (2×) (dose: 44.0 micrograms/kg/injection, schedule: Q01DX005 (ip), vehicle: saline, evaluated on day 30). Also, the T/C is 153, 172, 173 % of control (2×) (dose: 44.0 micrograms/kg/injection, schedule: Q01DX005 (ip), vehicle: saline, evaluated on day 45); 178 % of control (dose: 44.0 micrograms/kg/injection, schedule: Q01DX005 (ip), vehicle: saline, evaluated on day 60); 153, 158, 160, 162 % of control (dose: 50.0 micrograms/kg/injection, schedule: Q01DX005 (ip), vehicle: Klucel (hydroxypropylcellulose) (HPC)); 132 and 138 % of control (dose: 60.0 micrograms/kg/injection, schedule: Q01DX009 (ip), vehicle: saline with Tween-80); 150, 158, 161, 169, 185 % of control (dose: 67.0 micrograms/kg/injection, schedule: Q01DX005 (ip), vehicle: saline, evaluated on day 30); 155, 172, 173, 179, 196 % of control (dose: 67.0 micrograms/kg/injection, schedule: Q01DX005 (ip), vehicle: saline, evaluated on day 45). Besides, the T/C runs as follows: (dose: 67.0 micrograms/kg/injection, schedule: Q01DX005 (ip), vehicle: saline, evaluated on day 60) 154, 167, 180 % of control; under setting [1], 156, 160, 179 % of control; (dose: 100.0 micrograms/kg/injection, schedule: Q01DX005 (ip), vehicle: saline, evaluated on day 30) 159, 160, 164, 180, 202 % of control; (dose: 100.0 micrograms/kg/injection, schedule: Q01DX005 (ip), vehicle: saline, evaluated on day 45) 167, 171, 181, 185, 203 % of control; (dose: 100.0 micrograms/kg/injection, schedule: Q01DX005 (ip), vehicle: saline, evaluated on day 60) 166, 172, 182 % of control; (dose: 150.0 micrograms/kg/injection, schedule: Q01DX005 (ip), vehicle: saline, evaluated on day 30) 169, 174, 180, 186, 194 % of control. For the same compound, the T/C is 170, 175, 181, 184, 215 % of control (dose: 150.0 micrograms/kg/injection, schedule: Q01DX005 (ip), vehicle: saline, evaluated on day 45); 175, 182, 190 % of control (dose: 150.0 micrograms/kg/injection, schedule: Q01DX005 (ip), vehicle: saline, evaluated on day 60); 111 and 153 % of control under setting [2]; 112 and 148 % of control [9 of 10 alive] (dose: 200.0 micrograms/kg/injection, schedule: Q01DX005 (ip), vehicle: saline, evaluated on day 30); 181 % of control (dose: 200.0 micrograms/kg/injection, schedule: Q01DX005 (ip), vehicle: saline, evaluated on day 45); 99 [9 of 10 alive] and 135 % of control (dose: 200.0 micrograms/kg/injection, schedule: Q01DX005 (ip), vehicle: saline, evaluated on day 60). Besides, under setting [3], the T/C is 132 % of control. In addition, the survivor count is 5 of 5 under setting [1]; 3 of 6 (dose: 120.0 micrograms/kg/injection, schedule: Q01DX009 (ip), vehicle: saline with Tween-80); 0 of 5 and 4 of 6 under setting [2]; 0 of 6 (dose: 240.0 micrograms/kg/injection, schedule: Q01DX009 (ip), vehicle: saline with Tween-80); 0 of 6 under setting [3].
Take `C=C1C(=O)OC2C(OC=O)CCCC12` (stereo not drawn): the survivor count under setting [4] is 0 of 6.
For the compound `C[C@@H]1C[C@H]2[C@@H]3CCC4=CC(=O)C=C[C@]4(C)[C@@]3(F)[C@@H](O)C[C@]2(C)[C@@]1(O)C(=O)CO`, the survivor count (dose: 100.0 mg/kg/injection, schedule: Q01DX009 (ip), vehicle: saline sonified) is 6 of 6.
For `CC(C)COCSCC(NC(=O)CNC(=O)C(Cc1ccccc1)NC(=O)CNC(=O)C(CSC(c1ccccc1)(c1ccccc1)c1ccccc1)NC(c1ccccc1)(c1ccccc1)c1ccccc1)C(=O)O` (stereo not drawn), the survivor count under setting [5] is recorded as 6 of 6 and the survivor count under setting [4] is given as 6 of 6.
In the case of `CCOc1c(N=Nc2ccccc2O)c(C)nn1C(N)=S`, the survivor count (dose: 30.0 mg/kg/injection, schedule: Q01DX005 (ip), vehicle: Klucel (hydroxypropylcellulose) (HPC)) was 0 of 6; the survivor count (dose: 60.0 mg/kg/injection, schedule: Q01DX005 (ip), vehicle: Klucel (hydroxypropylcellulose) (HPC)) is recorded as 0 of 6; the survivor count under setting [5] was 0 of 6; the survivor count under setting [4] is 0 of 6.
For `CCNc1ccc2c(c1)C(=O)N(OS(C)(=O)=O)C2=O`, the survivor count under setting [6] was 2 of 6.
On to `CCCCNC(=S)N/N=C1/CC(=O)N(c2ccccc2)C1c1ccccc1` (stereo not drawn), for which, under setting [7], the survivor count was 5 of 6.
As to `CC1(Cl)C(c2ccccc2)=[N+]([O-])[N+]([O-])=C1c1ccccc1`, the survivor count (dose: 400.0 mg/kg/injection, schedule: Q04DX002 (ip), vehicle: saline with Tween-80) is 2 of 6.
Turning to `NC(=O)c1csc(C2OC3COP(=O)(O)OC3C2O)n1` (stereo not drawn), the T/C (dose: 200.0 mg/kg/injection, schedule: Q01DX005 (ip), vehicle: water) was 147 % of control.
In the case of `S=C(S)N1CCCCCC1`, for the setting “dose: 240.0 mg/kg/injection, schedule: Q01DX005 (ip), vehicle: suspension in saline”, the survivor count is 4 of 6.
Consider `O=[N+]([O-])c1ccc(C=C2C=CN(CCO)C=C2)cc1`, for which, under setting [6], the survivor count was 3 of 6.
In the case of `Oc1ccc(Cl)cc1CN1CCN(Cc2cc(Cl)ccc2O)CC1`, the survivor count reads like this: (dose: 60.0 mg/kg/injection, schedule: Q01DX005 (ip), vehicle: saline with Tween-80) 6 of 6; (dose: 120.0 mg/kg/injection, schedule: Q01DX005 (ip), vehicle: saline with Tween-80) 6 of 6; under setting [7], 6 of 6.
Consider `NC(CSCCCSCC(N)C(=O)O)C(=O)O` (stereo not drawn), for which the survivor count (dose: 400.0 mg/kg/injection, schedule: Q01DX001 (ip), vehicle: Klucel (hydroxypropylcellulose) (HPC)) was 1 of 6.
In the case of `Cc1cc2c(c3ccccc13)C(=N/N=C(N)N)/C(=N/N=C(N)N)C2`, under “dose: 100.0 mg/kg/injection, schedule: Q01DX001 (ip), vehicle: saline with Tween-80”, the survivor count is 1 of 6.
With `CCCCCCCCCCCC1N=C(N)N=C(N)N1c1cccc(Br)c1` (stereo not drawn), the survivor count runs as follows: (dose: 50.0 mg/kg/injection, schedule: Q01DX005 (ip), vehicle: saline with Tween-80) 0 of 5; (dose: 100.0 mg/kg/injection, schedule: Q01DX005 (ip), vehicle: saline with Tween-80) 3 of 5; under setting [6], 0 of 5.

The record behind these values is PubChem BioAssay AID330 (DTP/NCI, 2004).
